# Reference: the supplement of paper PMC10077471
# Over roughly 1,900 compounds, “excess over highest single agent (ExcessHSA) synergy score, 6x6 matrix” has its median near -83; the lowest 2% begin near -370. Some of the results follow.
# Test system: NCI-H446
# Experiment: excess over highest single agent (ExcessHSA) synergy score, 6x6 matrix; higher = less synergy (more negative = stronger synergy)
# Details: 72 h; CellTiter-Glo viability
row,SMILES,excess over highest single agent
1,COc1cc(N2CCC(C(N)=O)CC2)ccc1Nc1nc(N)c(Cl)c(Nc2ccccc2S(=O)(=O)C(C)C)n1 + Cc1sc2c(c1C)C(c1ccc(Cl)cc1)=N[C@@H](CC(=O)OC(C)(C)C)c1nnc(C)n1-2 [NCGC00250412-19],223
2,COc1cc2c(cc1-c1c(C)noc1C)ncc1[nH]c(=O)n([C@H](C)c3ccccn3)c12 + Cc1sc2c(c1C)C(c1ccc(Cl)cc1)=N[C@@H](CC(=O)OC(C)(C)C)c1nnc(C)n1-2 [NCGC00250412-19],-129
3,COc1cc2c(Oc3ccc4[nH]c(C)cc4c3F)ncnc2cc1OCCCN1CCCC1 + Cc1sc2c(c1C)C(c1ccc(Cl)cc1)=N[C@@H](CC(=O)OC(C)(C)C)c1nnc(C)n1-2 [NCGC00250412-19],-196
4,O=S(=O)(O)c1ccc2cc(N=Nc3cc(S(=O)(=O)O)c4cccnc4c3O)ccc2c1 + Cc1sc2c(c1C)C(c1ccc(Cl)cc1)=N[C@@H](CC(=O)OC(C)(C)C)c1nnc(C)n1-2 [NCGC00250412-19],-115
5,CC(=O)O[C@]1(C(C)=O)CC[C@H]2[C@@H]3C[C@H](C)C4=CC(=O)CC[C@]4(C)[C@H]3CC[C@@]21C + Cc1sc2c(c1C)C(c1ccc(Cl)cc1)=N[C@@H](CC(=O)OC(C)(C)C)c1nnc(C)n1-2 [NCGC00250412-19],-40.2
6,CC(C)(C)c1nc2c3cc[nH]c(=O)c3c3cc(F)ccc3c2[nH]1 + Cc1sc2c(c1C)C(c1ccc(Cl)cc1)=N[C@@H](CC(=O)OC(C)(C)C)c1nnc(C)n1-2 [NCGC00250412-19],20.3
7,O=C1C[C@@H](c2ccc(O)cc2)Oc2cc(O)cc(O)c21 + Cc1sc2c(c1C)C(c1ccc(Cl)cc1)=N[C@@H](CC(=O)OC(C)(C)C)c1nnc(C)n1-2 [NCGC00250412-19],-84
8,CCC(=O)O[C@]1(C(=O)CCl)[C@@H](C)C[C@H]2[C@@H]3CCC4=CC(=O)C=C[C@]4(C)[C@@]3(F)[C@@H](O)C[C@@]21C + Cc1sc2c(c1C)C(c1ccc(Cl)cc1)=N[C@@H](CC(=O)OC(C)(C)C)c1nnc(C)n1-2 [NCGC00250412-19],1160
9,O=C1NC(=O)/C(=C/c2ccc3nccnc3c2)S1 + Cc1sc2c(c1C)C(c1ccc(Cl)cc1)=N[C@@H](CC(=O)OC(C)(C)C)c1nnc(C)n1-2 [NCGC00250412-19],69.4
10,CCOC(=O)[C@H](CCc1ccccc1)N[C@H]1CS[C@H](c2cccs2)CN(CC(=O)O)C1=O + Cc1sc2c(c1C)C(c1ccc(Cl)cc1)=N[C@@H](CC(=O)OC(C)(C)C)c1nnc(C)n1-2 [NCGC00250412-19],-51.1
11,NC(=O)c1c(OCc2c(F)cc(Br)cc2F)nsc1NC(=O)NCCCCN1CCCC1 + Cc1sc2c(c1C)C(c1ccc(Cl)cc1)=N[C@@H](CC(=O)OC(C)(C)C)c1nnc(C)n1-2 [NCGC00250412-19],-187
12,CCCCC(F)(F)[C@@]1(O)CC[C@H]2[C@@H](CC(=O)[C@@H]2CCCCCCC(=O)O)O1 + Cc1sc2c(c1C)C(c1ccc(Cl)cc1)=N[C@@H](CC(=O)OC(C)(C)C)c1nnc(C)n1-2 [NCGC00250412-19],-107
13,COc1ccc(F)c(F)c1C(=O)c1cnc(NC2CCN(S(C)(=O)=O)CC2)nc1N + Cc1sc2c(c1C)C(c1ccc(Cl)cc1)=N[C@@H](CC(=O)OC(C)(C)C)c1nnc(C)n1-2 [NCGC00250412-19],-133
14,O=c1c(-c2ccc(O)cc2)coc2cc(O[C@@H]3O[C@H](CO)[C@@H](O)[C@H](O)[C@H]3O)ccc12 + Cc1sc2c(c1C)C(c1ccc(Cl)cc1)=N[C@@H](CC(=O)OC(C)(C)C)c1nnc(C)n1-2 [NCGC00250412-19],-180
15,O=c1c(O)c(-c2ccc(O)cc2O)oc2cc(O)cc(O)c12 + Cc1sc2c(c1C)C(c1ccc(Cl)cc1)=N[C@@H](CC(=O)OC(C)(C)C)c1nnc(C)n1-2 [NCGC00250412-19],-13.8
16,OC[C@H]1O[C@@H](Oc2cc(O)cc(/C=C/c3ccc(O)cc3)c2)[C@H](O)[C@@H](O)[C@@H]1O + Cc1sc2c(c1C)C(c1ccc(Cl)cc1)=N[C@@H](CC(=O)OC(C)(C)C)c1nnc(C)n1-2 [NCGC00250412-19],-272
17,CC(=O)Nc1nc(C)c(-c2ccc(Cl)c(S(=O)(=O)NCCO)c2)s1 + Cc1sc2c(c1C)C(c1ccc(Cl)cc1)=N[C@@H](CC(=O)OC(C)(C)C)c1nnc(C)n1-2 [NCGC00250412-19],29.4
18,N#Cc1cc(NC(=O)Nc2nnc(-c3ccncc3)s2)ccc1-c1cn[nH]c1 + Cc1sc2c(c1C)C(c1ccc(Cl)cc1)=N[C@@H](CC(=O)OC(C)(C)C)c1nnc(C)n1-2 [NCGC00250412-19],313
19,COc1ccc2c(c[n+](C)c3c4cc5c(cc4ccc23)OCO5)c1OC + Cc1sc2c(c1C)C(c1ccc(Cl)cc1)=N[C@@H](CC(=O)OC(C)(C)C)c1nnc(C)n1-2 [NCGC00250412-19],-248

# Look-ups from above.
# Value for O=C1NC(=O)/C(=C/c2ccc3nccnc3c2)S1 + Cc1sc2c(c1C)C(c1ccc(Cl)cc1)=N[C@@H](CC(=O)OC(C)(C)C)c1nnc(C)n1-2 [NCGC00250412-19] under excess over highest single agent: 69.4
# Value for COc1cc(N2CCC(C(N)=O)CC2)ccc1Nc1nc(N)c(Cl)c(Nc2ccccc2S(=O)(=O)C(C)C)n1 + Cc1sc2c(c1C)C(c1ccc(Cl)cc1)=N[C@@H](CC(=O)OC(C)(C)C)c1nnc(C)n1-2 [NCGC00250412-19] under excess over highest single agent: 223

# The results go on:

row,SMILES,excess over highest single agent
1,O=C(O)CCNc1cc(N2CCc3ccccc3CC2)nc(-c2ccccn2)n1 + Cc1sc2c(c1C)C(c1ccc(Cl)cc1)=N[C@@H](CC(=O)OC(C)(C)C)c1nnc(C)n1-2 [NCGC00250412-19],-73
2,C=CC[C@@H]1/C=C(\C)C[C@H](C)C[C@H](OC)[C@H]2O[C@@](O)(C(=O)C(=O)N3CCCC[C@H]3C(=O)O[C@H](/C(C)=C/[C@@H]3CC[C@@H](O)[C@H](OC)C3)[C@H](C)[C@@H](O)CC1=O)[C@H](C)C[C@@H]2OC + Cc1sc2c(c1C)C(c1ccc(Cl)cc1)=N[C@@H](CC(=O)OC(C)(C)C)c1nnc(C)n1-2 [NCGC00250412-19],-143
3,COc1ccc2[nH]cc(CCNC(C)=O)c2c1 + Cc1sc2c(c1C)C(c1ccc(Cl)cc1)=N[C@@H](CC(=O)OC(C)(C)C)c1nnc(C)n1-2 [NCGC00250412-19],1.14
4,Cc1ccc(C(=O)c2cc(O)c(O)c([N+](=O)[O-])c2)cc1 + Cc1sc2c(c1C)C(c1ccc(Cl)cc1)=N[C@@H](CC(=O)OC(C)(C)C)c1nnc(C)n1-2 [NCGC00250412-19],-117
5,CN1C2CCCC1CC(NC(=O)c1nn(C)c3ccccc13)C2 (configuration not stated) + Cc1sc2c(c1C)C(c1ccc(Cl)cc1)=N[C@@H](CC(=O)OC(C)(C)C)c1nnc(C)n1-2 [NCGC00250412-19],-119
6,CC(=O)Nc1ccc(OC[C@](C)(O)C(=O)Nc2ccc([N+](=O)[O-])c(C(F)(F)F)c2)cc1 + Cc1sc2c(c1C)C(c1ccc(Cl)cc1)=N[C@@H](CC(=O)OC(C)(C)C)c1nnc(C)n1-2 [NCGC00250412-19],270
7,CCN(CC)CC#CCOC(=O)C(O)(c1ccccc1)C1CCCCC1 (configuration not stated) + Cc1sc2c(c1C)C(c1ccc(Cl)cc1)=N[C@@H](CC(=O)OC(C)(C)C)c1nnc(C)n1-2 [NCGC00250412-19],-71.2
8,Cc1ncc([N+](=O)[O-])n1CCO + Cc1sc2c(c1C)C(c1ccc(Cl)cc1)=N[C@@H](CC(=O)OC(C)(C)C)c1nnc(C)n1-2 [NCGC00250412-19],70.4
9,OC(CCN1CCCCC1)(c1ccccc1)C1CC2C=CC1C2 (configuration not stated) + Cc1sc2c(c1C)C(c1ccc(Cl)cc1)=N[C@@H](CC(=O)OC(C)(C)C)c1nnc(C)n1-2 [NCGC00250412-19],-37.5
10,CN(C)c1ccc(C(=O)NCCCCCCC(=O)NO)cc1 + Cc1sc2c(c1C)C(c1ccc(Cl)cc1)=N[C@@H](CC(=O)OC(C)(C)C)c1nnc(C)n1-2 [NCGC00250412-19],-250
11,C[C@H]1[C@@H](O)O[C@@H]2O[C@@]3(C)CC[C@H]4[C@H](C)CC[C@@H]1[C@@]24OO3 + Cc1sc2c(c1C)C(c1ccc(Cl)cc1)=N[C@@H](CC(=O)OC(C)(C)C)c1nnc(C)n1-2 [NCGC00250412-19],-199
12,COc1ccc(-c2oc3c(CC=C(C)C)c(O[C@@H]4O[C@H](CO)[C@@H](O)[C@H](O)[C@H]4O)cc(O)c3c(=O)c2O[C@@H]2O[C@@H](C)[C@H](O)[C@@H](O)[C@H]2O)cc1 + Cc1sc2c(c1C)C(c1ccc(Cl)cc1)=N[C@@H](CC(=O)OC(C)(C)C)c1nnc(C)n1-2 [NCGC00250412-19],17.3
13,CCn1cc(C(=O)O)c(=O)c2ccc(C)nc21 + Cc1sc2c(c1C)C(c1ccc(Cl)cc1)=N[C@@H](CC(=O)OC(C)(C)C)c1nnc(C)n1-2 [NCGC00250412-19],-189
14,CCO[C@@H]1OC(=O)C[C@@H]1NC(=O)[C@@H]1CCCN1C(=O)[C@@H](NC(=O)c1ccc(N)c(Cl)c1)C(C)(C)C + Cc1sc2c(c1C)C(c1ccc(Cl)cc1)=N[C@@H](CC(=O)OC(C)(C)C)c1nnc(C)n1-2 [NCGC00250412-19],-51.3
15,COc1cc2nc(N3CCN(C(=O)c4ccco4)CC3)nc(N)c2cc1OC + Cc1sc2c(c1C)C(c1ccc(Cl)cc1)=N[C@@H](CC(=O)OC(C)(C)C)c1nnc(C)n1-2 [NCGC00250412-19],55.3
16,NCCS(=O)(=O)O + Cc1sc2c(c1C)C(c1ccc(Cl)cc1)=N[C@@H](CC(=O)OC(C)(C)C)c1nnc(C)n1-2 [NCGC00250412-19],-91.5
17,COc1nc(C)nc(Cl)c1NC1=NCCN1 + Cc1sc2c(c1C)C(c1ccc(Cl)cc1)=N[C@@H](CC(=O)OC(C)(C)C)c1nnc(C)n1-2 [NCGC00250412-19],-61.6
18,C[C@](O)(COc1ccc(C#N)cc1)C(=O)Nc1ccc(C#N)c(C(F)(F)F)c1 + Cc1sc2c(c1C)C(c1ccc(Cl)cc1)=N[C@@H](CC(=O)OC(C)(C)C)c1nnc(C)n1-2 [NCGC00250412-19],-172
